# Data from PubChem BioAssay AID540276 (National Center for Advancing Translational Sciences (NCATS), 2011).
# In all, about 300,000 compounds went through this assay and about 5,400 (1.8%) were called active. This list was built around the results that the source calls inconclusive (neither active nor inactive); the mix of calls is not that of the screen. Calls come from the whole dose curve; tested in HEK293 cells. Where the call is inconclusive, the potency comes from a doubtful curve fit.
# Assay: qHTS for inhibitors of binding or entry into cells for Marburg Virus
# Conditions: Marburg virus pseudotyped entry inhibition, cell reporter; series mostly up to 37.8 µM
# Potency is the fitted concentration of half-maximal effect.
row,SMILES,Potency
1,O=C(CCl)NCc1c(Cl)cccc1-n1cccc1,"inconclusive: 11.6 µM [inhibitor, partial curve, poor fit]"
2,CCCn1nnc(NC(=O)c2cc3ccccc3o2)n1,"inconclusive: 2.59 µM [activator, partial curve]"
3,CCn1c2ccccc2c2cc(/C=N/NC(=O)c3ccncc3)ccc21,"inconclusive: 1.12 µM [inhibitor, full curve, poor fit]"
4,COc1ccc(CCN2C(=O)c3oc4ccc(F)cc4c(=O)c3C2c2ccc(C(C)(C)C)cc2)cc1 (stereo not drawn),inactive
5,O=C1N=C(N2CCCCC2)SC1=C1CCCC1,"inconclusive: 2.59 µM [activator, partial curve, poor fit]"
6,O=C(CSCC(=O)N1CCCc2ccccc21)Nc1nc(-c2ccccc2)cs1,inactive
7,Cc1ccnc(NC(=O)CNC(=O)c2ccco2)c1,"inconclusive: 6.31 µM [activator, single point]"
8,CC1CC(C)(C)CC2(C1)NC(=O)N(CC(=O)N1CCN(Cc3ccc(C#N)cc3)CC1)C2=O (stereo not drawn),"inconclusive: 10 µM [inhibitor, partial curve]"
9,CCC(=O)c1ccccc1OCC(=O)Nc1c(C)cccc1C,inactive
10,O=C(CSc1ccccc1)Nc1ccc2c(c1)OCO2,"inconclusive: 10 µM [activator, partial curve]"
11,CC1=NN(C(N)=S)C(=O)C1N=Nc1ccccc1C (stereo not drawn),"inconclusive: 2.82 µM [activator, partial curve, poor fit]"
12,COc1ccc(N=[N+]([O-])c2ccc(OC)cc2)cc1,"inconclusive: 12.6 µM [inhibitor, single point]"
13,Cc1ccc(-n2cc(CN(C)Cc3ncc[nH]3)c(-c3cccc(C)c3)n2)cc1,"inconclusive: 35.5 µM [inhibitor, single point]"
14,CCCSc1nc(C)cc(C)c1S(=O)(=O)c1ccccc1C,"inconclusive: 0.316 µM [inhibitor, full curve, poor fit]"
15,Cc1c(C#N)c(NC(=O)c2cccc(Cl)c2)n(Cc2ccccc2)c1C,"inconclusive: 11.2 µM [activator, single point]"
16,CC(C)(C)c1ccc(OCc2ccc(C(=O)N3CCOCC3)o2)cc1,"inconclusive: 7.94 µM [inhibitor, partial curve, poor fit]"
17,CCOc1ccc2nc(N3CCC(C(=O)N4CCN(C(=O)c5ccco5)CC4)CC3)sc2c1,"inconclusive: 4.61 µM [activator, single point]"
18,CCOC(=O)c1cccc(NC(=O)C2CCN(S(=O)(=O)c3ccc4c(c3)oc(=O)n4C)CC2)c1,inactive

# Entries 10 to 11 from above:
row,SMILES,Potency
10,O=C(CSc1ccccc1)Nc1ccc2c(c1)OCO2,"inconclusive: 10 µM [activator, partial curve]"
11,CC1=NN(C(N)=S)C(=O)C1N=Nc1ccccc1C (stereo not drawn),"inconclusive: 2.82 µM [activator, partial curve, poor fit]"
